From patent publication US20250011788A1, “NUCLEIC ACID INTERFERENCE PHARMACEUTICAL COMPOSITION, AND DRUG FOR TREATING COLORECTAL CANCER, GASTRIC CANCER, AND PROSTATE CANCER” (SIRNAOMICS BIOPHARMACEUTICALS (SUZHOU) CO., LTD., priority 2022, published 2025)
Where two headings read alike, the source gives them in different places. Some entries share one result that the patent states for a list of compounds. d = 2'-deoxy (DNA); r = 2'-OH (RNA)

What was measured:
MyD88 gene (mRNA) [1] = experiment: In vitro screening of MyD88 siRNA: MyD88 mRNA silencing by RT-PCR; type: cell-based, human; details: 100 nM siRNA, lipo2000, 20-24 h; five cell lines MDA-MB-231, U87-MG, T98G, DLD-1, RKO
Description: Some cell lines screened out in Example 2 were used for primary siRNA screening, including a breast cancer cell line (MDA-MB-231), a neuroglioma cell line (U87-MG), a human brain glioma cell line (T98G), a human colorectal cancer epithelial cell line (DLD-1) and a human colon cancer cell line (RKO). Specifically, the MyD88 siRNA sequence in Table 1 was transfected into the above five cells by lipo2000, and the transfection concentration was 100 nM (calculated by siRNA). After transfection for 20-24 h, the total RNA of the cells was extracted, and the mRNA expression level of the target gene MyD88 was detected by RT-PCR technology. […] The three specifical sequences are MD8-21-hm3# (NTS00025-21-hm3# in FIG. 3), MD8-21-hm4# (NTS00025-21-hm4# in FIG. 3) and MD8-21-hm5# (NTS00025-21-hm5# in FIG. 3).

MyD88 gene (mRNA) [2] = experiment: EC50 of MyD88 mRNA knockdown in mouse-derived cell lines; type: cell-based
[3] = colorectal cancer (MC38) cells, read-out: EC50 of knockdown in MC38 cells

Substance	target gene silencing effect (KD) on MyD88 mRNA (MyD88 gene (mRNA) [1])	EC50 (MyD88 gene (mRNA) [2]; [3]) [µM]	EC50 (MyD88 gene (mRNA) [2]; mouse prostate cancer (RM-1) cells, read-out: EC50 of knockdown in RM-1 cells) [µM]
MD8-21-hm4#: MyD88 siRNA; sense GCAAGGAAUGUGACUUCCAdTdT (SEQ ID NO: 29), antisense UGGAAGUCACAUUCCUUGCdTdT (SEQ ID NO: 30) (sense GCAAGGAAUGUGACUUCCATT; antisense UGGAAGUCACAUUCCUUGCTT; sugars from the 5' end r19 d2, backbone not given here)	higher than 60%	< 0.01	
MD8-21-hm3#: MyD88 siRNA; sense CAGAGCAAGGAAUGUGACUdTdT (SEQ ID NO: 27), antisense AGUCACAUUCCUUGCUCUGdTdT (SEQ ID NO: 28) (sense CAGAGCAAGGAAUGUGACUTT; antisense AGUCACAUUCCUUGCUCUGTT; sugars from the 5' end r19 d2, backbone not given here)	higher than 60%		
MD8-21-hm5#: MyD88 siRNA; sense GAAUGUGACUUCCAGACCAdTdT (SEQ ID NO: 31), antisense UGGUCUGGAAGUCACAUUCdTdT (SEQ ID NO: 32) (sense GAAUGUGACUUCCAGACCATT; antisense UGGUCUGGAAGUCACAUUCTT; sugars from the 5' end r19 d2, backbone not given here)	higher than 60%	< 0.01	< 0.01
